Experimental data as given in patent US20110142840A1 (ONCOMED PHARMACEUTICALS, published 2011).
Results are given in words; binding and its absence hold for the method and conditions named. Some results given as binding are weak or reduced against the parent protein; the word gives no strength.

Amino acid sequences for entries named in this document (tags omitted). Residues count along the entry.
UniProt P08581, residues 27-515: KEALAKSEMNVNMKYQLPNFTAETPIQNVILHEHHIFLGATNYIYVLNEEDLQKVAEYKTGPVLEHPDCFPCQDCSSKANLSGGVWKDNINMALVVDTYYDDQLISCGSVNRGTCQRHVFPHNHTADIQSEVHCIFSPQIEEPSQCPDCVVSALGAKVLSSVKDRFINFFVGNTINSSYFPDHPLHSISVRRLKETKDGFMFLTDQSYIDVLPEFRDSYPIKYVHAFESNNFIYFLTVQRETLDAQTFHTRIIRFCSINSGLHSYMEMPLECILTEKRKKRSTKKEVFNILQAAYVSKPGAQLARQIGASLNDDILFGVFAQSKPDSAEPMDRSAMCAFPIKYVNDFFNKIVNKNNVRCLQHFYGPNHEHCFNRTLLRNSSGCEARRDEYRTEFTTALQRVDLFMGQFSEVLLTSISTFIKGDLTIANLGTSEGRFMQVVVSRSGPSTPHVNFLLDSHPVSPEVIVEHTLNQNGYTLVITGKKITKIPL

Biological target: T1, recombinant human MET SEMA domain (human, UniProt P08581 27-515)
T1 construct: domain: SEMA; also called SEMA domain of MET-ECD
Assay: plate binding assay, 384-well plates coated with recombinant domains

B1: 13-MET human IgG1 antibody (antibody, V domains shown)
VH: QVQLKESGPALVKPTQTLTLTCTFSGFSLSTSGMVVSWIRQPPGKALEWLAFISWDDDKYYSTSLKTRLTISKDTSKNQVVLTMTNMDPVDTATYYCAREPGRYGGYYFDYWGQGTLVTVSS
VL: DIQMTQSPSSLSASVGDRVTITCRASQTISHYLAWYQQKPGKAPKLLIYAASILQSGVPSRFSGSGSGTDFTLTISSLQPEDFAVYYCQQYSGFPVTFGQGTKVEIKR
notes: Fab variable regions combined with human constant regions to give a full human IgG1; ATCC deposit PTA-9148; also called 13-MET IgG; MET-13 IgG
binding: binds
